Laboratory results reported in patent EP4778539A1.
Results are given in words; binding and its absence hold for the method and conditions named. Binding calls can cover weak binding; strength is not graded here.

B1: Fab complex #73 (Fab, V domains shown)
VH: EVQLVESGGGLVQPGGSLRLSCAASGFSLSSHSLGWVRQAPGKGLEWIGDIRSGGSAYYANWAKGRFTISRDNSKNTLYLQMNSLRAEDTAVYYCTRTNGPSDLTNRLDLWGQGTLVTVSS
VL: EIVLTQSPSSLSASVGDRVTINCQASQSLYNNENLAWFQQKPGKVPKRLIYGASTLASGVSSRFSGSGSGTEFTLTISNLQPEDFATYYCLGEFSCGSADCFAFGGGTKVEIK
B2: Fab complex #74 (Fab, V domains shown)
VH: EVQLVESGGGLVQPGGSLRLSCAASGFSLSSHSLGWVRQAPGKGLEWIGDIRSGGSAYYANWAKGRFTISRDNSKNTLYLQMNSLRAEDTAVYFCTRTNGPSDLTNRLDLWGQGTLVTVSS
VL: EQVLTQSPSSLSASVGDRVTINCQASQSLYNNENLAWFQQKPGKVPKRLIYGASTLASGVSSRFSGSGSGTEFTLTISNLQPEDFAIYYCLGEFSCGSADCFAFGGGTKVEIK
B3: humanized antibody complex #42 (antibody, human IgG1, V domains shown)
VH: AVTLDESGGGLQTPGGALSLVCKASGFTFSGYDMLWVRQAPGKGLEWVAGIGSTGGGTDYGAAVKGRATISRDNGQSTVRLQLNNLRAEDTATYYCAKVAGGCNSGYCRDSPGSIDAWGHGTEVIVS
VL: AVTQQPASVSANPGETVKITCSGGGSRNYYGWYQQKSPGSVPVTVIYYDDQRPSNIPSRFSGALSGSTSTLTITGVQADDEAVYFCGSADSNTYEGSFGAGTTLTVL
B4: F(ab')2 complex #9 (protein)
VH: AVTLDESGGGLQTPGGALSLVCKASGFTFSGYDMLWVRQAPGKGLEWVAGIGSTGGGTDYGAAVKGRATISRDNGQSTVRLQLNNLRAEDTATYYCAKVAGGCNSGYCRDSPGSIDAWGHGTEVIVS
VL: AVTQQPASVSANPGETVKITCSGGGSRNYYGWYQQKSPGSVPVTVIYYDDQRPSNIPSRFSGALSGSTSTLTITGVQADDEAVYFCGSADSNTYEGSFGAGTTLTVL
B5: F(ab')2 complex #13 (protein)
VH: GAELVRSGASVKMSCKASGYSFTDYNMYWVKQTPGQGLEWIGYIYPGNGGTNYNQKFKGKATLTADTSSSTAYMQISSLTSEDSAVYFCARDYDDGGYAMDYWGQGTTVTVSS
VL: DIQMTQSPASLSASVGETVTITCRASGNIHNYLTWYQQKQGKSPQLLVYNAKTLADGVPSRFSGSGSGTQYSLKINRLQPEDFGSYYCQHFWNIPWTFGGGTKLNSR
B6: F(ab')2 complex #36 (protein)
VH: EVQLVESGGGLVQPGGSLRLSCAASGFSLSSHSLGWVRQAPGKGLEWIGDIRSGGSAYYANWAKGRFTISRDNSKNTLYLQMNSLRAEDTAVYYCTRTNGPSDLTNRLDLWGQGTLVTVSS
VL: QVLTQSPSSLSASVGDRVTINCQASQSLYNNENLAWFQQKPGKVPKRLIYGASTLASGVSSRFSGSGSGTEFTLTISSLQCEDFAIYYCLGEFSCGSADCFAFGGGTKVEIK
B7: F(ab')2 complex #37 (protein)
VH: EVQLVESGGGLVQPGGSLRLSCAASGFSLSSHSLGWVRQAPGKGLEWIGDIRSGGSAYYANWAKGRFTISRDNSKNTLYLQMNSLRAEDTAVYFCTRTNGPSDLTNRLDLWGQGTLVTVSS
VL: QVLTQSPSSLSASVGDRVTINCQASQSLYNNENLAWFQQKPGKVPKRLIYGASTLASGVSSRFSGSGSGTEFTLTISSLQCEDFAIYYCLGEFSCGSADCFAFGGGTKVEIK
B8: F(ab')2 complex #38 (protein)
VH: EVQLVESGGGLVQPGGSLRLSCAASGFSLSSHSLGWVRQAPGKGLEWIGDIRSGGSAYYANWAKGRFTISRDNSKNTLYLQMNSLRAEDTAVYYCTRTNGPSDLTNRLDLWGQGTLVTVSS
VL: EQVLTQSPSSLSASVGDRVTINCQASQSLYNNENLAWFQQKPGKVPKRLIYGASTLASGVSSRFSGSGSGTEFTLTISNLQPEDFAIYYCLGEFSCGSADCFAFGGGTKVEIK
B9: F(ab')2 complex #39 (protein)
VH: EVQLVESGGGLVQPGGSLRLSCAASGFSLSSHSLGWVRQAPGKGLEWIGDIRSGGSAYYANWAKGRFTISRDNSKNTLYLQMNSLRAEDTAVYFCTRTNGPSDLTNRLDLWGQGTLVTVSS
VL: EIVLTQSPSSLSASVGDRVTINCQASQSLYNNENLAWFQQKPGKVPKRLIYGASTLASGVSSRFSGSGSGTEFTLTISNLQPEDFATYYCLGEFSCGSADCFAFGGGTKVEIK
B10: F(ab')2 complex #40 (protein)
VH: EVQLVESGGGLVQPGGSLRLSCAASGFSLSSHSLGWVRQAPGKGLEWIGDIRSGGSAYYANWAKGRFTISRDNSKNTLYLQMNSLRAEDTAVYYCTRTNGPSDLTNRLDLWGQGTLVTVSS
VL: EIVLTQSPSSLSASVGDRVTINCQASQSLYNNENLAWFQQKPGKVPKRLIYGASTLASGVSSRFSGSGSGTEFTLTISNLQPEDFATYYCLGEFSCGSADCFAFGGGTKVEIK
B11: F(ab')2 complex #41 (protein)
VH: EVQLVESGGGLVQPGGSLRLSCAASGFSLSSHSLGWVRQAPGKGLEWIGDIRSGGSAYYANWAKGRFTISRDNSKNTLYLQMNSLRAEDTAVYFCTRTNGPSDLTNRLDLWGQGTLVTVSS
VL: EQVLTQSPSSLSASVGDRVTINCQASQSLYNNENLAWFQQKPGKVPKRLIYGASTLASGVSSRFSGSGSGTEFTLTISNLQPEDFAIYYCLGEFSCGSADCFAFGGGTKVEIK
B12: F(ab')2 complex #42 (protein)
VH: AVTLDESGGGLQTPGGALSLVCKASGFTFSGYDMLWVRQAPGKGLEWVAGIGSTGGGTDYGAAVKGRATISRDNGQSTVRLQLNNLRAEDTATYYCAKVAGGCNSGYCRDSPGSIDAWGHGTEVIVS
VL: AVTQQPASVSANPGETVKITCSGGGSRNYYGWYQQKSPGSVPVTVIYYDDQRPSNIPSRFSGALSGSTSTLTITGVQADDEAVYFCGSADSNTYEGSFGAGTTLTVL
B13: humanized antibody complex #46 (antibody, human IgG1, V domains shown)
VH: GAELVRSGASVKMSCKASGYSFTDYNMYWVKQTPGQGLEWIGYIYPGNGGTNYNQKFKGKATLTADTSSSTAYMQISSLTSEDSAVYFCARDYDDGGYAMDYWGQGTTVTVSS
VL: DIQMTQSPASLSASVGETVTITCRASGNIHNYLTWYQQKQGKSPQLLVYNAKTLADGVPSRFSGSGSGTQYSLKINRLQPEDFGSYYCQHFWNIPWTFGGGTKLNSR
B14: F(ab')2 complex #46 (protein)
VH: GAELVRSGASVKMSCKASGYSFTDYNMYWVKQTPGQGLEWIGYIYPGNGGTNYNQKFKGKATLTADTSSSTAYMQISSLTSEDSAVYFCARDYDDGGYAMDYWGQGTTVTVSS
VL: DIQMTQSPASLSASVGETVTITCRASGNIHNYLTWYQQKQGKSPQLLVYNAKTLADGVPSRFSGSGSGTQYSLKINRLQPEDFGSYYCQHFWNIPWTFGGGTKLNSR
B15: humanized antibody complex #47 (antibody, human IgG1, V domains shown)
VH: DAELVKPGASVKISCKASGYTFTDHSIHWVQQKPEQGLEWIGYISPGNGNIKYNEKFKGKATLTADKSSSTAYMQLNSLTSEDSAVYFCKRSLGRGGPYYFDYWGQGTTVTVSS
VL: DIVLTQAAPSLPVTPGESVSISCRSSKSLLHSNGNTYLYWFLQRPGQSPQLLIYRMSNLASGVPDRFSGSGSGTAFTLRISRVEAEDVGVYYCMQHREYPVTFGSGPN
B16: F(ab')2 complex #69 (protein)
VH: EVQLVESGGGLVQPGGSLRLSCAASGFSLSSHSLGWVRQAPGKGLEWIGDIRSGGSAYYANWAKGRFTISRDNSKNTLYLQMNSLRAEDTAVYYCTRTNGPSDLTNRLDLWGQGTLVTVSS
VL: QVLTQSPSSLSASVGDRVTINCQASQSLYNNENLAWFQQKPGKVPKRLIYGASTLASGVSSRFSGSGSGTEFTLTISSLQCEDFAIYYCLGEFSCGSADCFAFGGGTKVEIK
B17: F(ab')2 complex #70 (protein)
VH: EVQLVESGGGLVQPGGSLRLSCAASGFSLSSHSLGWVRQAPGKGLEWIGDIRSGGSAYYANWAKGRFTISRDNSKNTLYLQMNSLRAEDTAVYFCTRTNGPSDLTNRLDLWGQGTLVTVSS
VL: QVLTQSPSSLSASVGDRVTINCQASQSLYNNENLAWFQQKPGKVPKRLIYGASTLASGVSSRFSGSGSGTEFTLTISSLQCEDFAIYYCLGEFSCGSADCFAFGGGTKVEIK
B18: F(ab')2 complex #71 (protein)
VH: EVQLVESGGGLVQPGGSLRLSCAASGFSLSSHSLGWVRQAPGKGLEWIGDIRSGGSAYYANWAKGRFTISRDNSKNTLYLQMNSLRAEDTAVYYCTRTNGPSDLTNRLDLWGQGTLVTVSS
VL: EQVLTQSPSSLSASVGDRVTINCQASQSLYNNENLAWFQQKPGKVPKRLIYGASTLASGVSSRFSGSGSGTEFTLTISNLQPEDFAIYYCLGEFSCGSADCFAFGGGTKVEIK
B19: F(ab')2 complex #72 (protein)
VH: EVQLVESGGGLVQPGGSLRLSCAASGFSLSSHSLGWVRQAPGKGLEWIGDIRSGGSAYYANWAKGRFTISRDNSKNTLYLQMNSLRAEDTAVYFCTRTNGPSDLTNRLDLWGQGTLVTVSS
VL: EIVLTQSPSSLSASVGDRVTINCQASQSLYNNENLAWFQQKPGKVPKRLIYGASTLASGVSSRFSGSGSGTEFTLTISNLQPEDFATYYCLGEFSCGSADCFAFGGGTKVEIK
B20: F(ab')2 complex #73 (protein)
VH: EVQLVESGGGLVQPGGSLRLSCAASGFSLSSHSLGWVRQAPGKGLEWIGDIRSGGSAYYANWAKGRFTISRDNSKNTLYLQMNSLRAEDTAVYYCTRTNGPSDLTNRLDLWGQGTLVTVSS
VL: EIVLTQSPSSLSASVGDRVTINCQASQSLYNNENLAWFQQKPGKVPKRLIYGASTLASGVSSRFSGSGSGTEFTLTISNLQPEDFATYYCLGEFSCGSADCFAFGGGTKVEIK
B21: F(ab')2 complex #74 (protein)
VH: EVQLVESGGGLVQPGGSLRLSCAASGFSLSSHSLGWVRQAPGKGLEWIGDIRSGGSAYYANWAKGRFTISRDNSKNTLYLQMNSLRAEDTAVYFCTRTNGPSDLTNRLDLWGQGTLVTVSS
VL: EQVLTQSPSSLSASVGDRVTINCQASQSLYNNENLAWFQQKPGKVPKRLIYGASTLASGVSSRFSGSGSGTEFTLTISNLQPEDFAIYYCLGEFSCGSADCFAFGGGTKVEIK
B22: humanized antibody complex #63 (antibody, human IgG1, V domains shown)
VH: GPDLVKPGASVKISCKASGYSFTAYYMHWVKQSHGKSLEWIGRVNPNNGGTTYNQKFKGKAILTVDKSSSTAYMELRSLTFEDSAVYYCARRIYYGYFDYWGQGTTVTVSS
VL: AFFAVSLGQRATISCKASQSVDYDGDSYMNWYQQKPGQPPKLLIYVASNLESGVPARFSGSGSGTDFTLNIHPVEEEDAATYYCQQSNEDPYTFGGGTKLEIKQ

Molecular target: CAPRIN-1 protein
Experiment: ELISA

binding, binds:
B1
B2
B3
B4
B5
B6
B7
B8
B9
B10
B11
B12
B13
B14
B15
B16
B17
B18
B19
B20
B21
B22
